Laboratory results reported in PubChem BioAssay AID2685 (National Center for Advancing Translational Sciences (NCATS), 2010).
Some of the results follow. The main result of the screen is listed elsewhere. These columns were measured beside it and carry no call. Most of these compounds were active or inconclusive in the main read-out, so they are no random draw. Potencies come from curve fits of mixed quality, noted in brackets.

Experiment: qHTS Assay for Lipid Storage Modulators in Drosophila S3 Cells;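 for cell number change: cells counted by Cell Tracker Red CMTPX staining in the red channel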
Conditions: BODIPY lipid droplet fluorescence, 18-24 h; for cell number change: measured here: cell count max response, cells fed with added oleic acid
Outline: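 Drosophila S3 cells loaded with oleic acid (400 uM, as added) and compounds at several concentrations; lipid droplets imaged by 488-nm laser-scanning cytometry, 500–530 nm intensity and object ratio to cell channel. Percent activity normalized to 20 uM Triacsin C.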

[1] = measured here: cell number channel AC50, cells fed with added oleic acid
[2] = measured here: lipid fluorescence (Fed channel) AC50, cells fed with added oleic acid

Row | Structure (SMILES) | cell number change | AC50 [1] | AC50 [2]
1 | CCOC(=O)c1cc2sc(C)cc2n1CC(=O)N1CCc2ccccc21 | -2.71% | 0.58 µM [rising, full curve] | 0.58 µM [rising, full curve]
2 | CC(C)N(C(=O)CSc1nc(Cc2ccccc2)nc2ccccc12)C(C)C | -2.93% | – | 29.1 µM [falling, single point]
3 | COc1ccccc1C(=O)N/C(=C/c1ccco1)C(=O)Nc1ccc(C(=O)O)cc1 | 19.1% | – | 6.51 µM [rising, single point]
4 | Fc1ccccc1CSc1nncn1NC/C=C/c1ccccc1 | 20.4% | – | 3.26 µM [rising, single point]
5 | CCC(C)n1nccc1NC(=O)C(C)Cl (stereo unspecified) | – | 0.082 µM [rising, single point] | –
6 | Cc1oc2ccccc2c1CC(=O)NCCCN(C)C | 8.53% | – | 29.1 µM [rising, single point]
7 | O=C(NC1CC1)c1ccc(-c2ccccc2)cc1 | 1.17% | – | 0.731 µM [rising, single point]
8 | O=C(/C=C/c1ccccc1)c1ccoc1 | – | – | 6.51 µM [falling, single point]
9 | Cc1cccc(C)c1NC(=O)CSc1nnc(NC(=O)C2CC2)s1 | -3.81% | – | 6.51 µM [falling, partial curve, poor fit]
10 | COc1ccccc1C(=O)NC(=O)COc1ccc([N+](=O)[O-])cc1 | -1.39% | 0.103 µM [falling, full curve, poor fit] | –
11 | COCCCNC(=O)C1CC(=O)N(c2ccc(C)cc2)C1 (stereo unspecified) | -23.8% | 4.61 µM [falling, single point] | 18.4 µM [falling, single point]
12 | O=C(Cc1ccccc1)NCCSC1CCCCC1 | 31.3% | – | –
13 | CN(C)S(=O)(=O)c1cccc(NC(=O)Cn2cnc3ccccc3c2=O)c1 | -6.06% | – | –
14 | CC1(C)Cc2c(sc3nnn(CC(=O)Nc4ccccc4)c(=O)c23)CO1 | -44.6% | 29.1 µM [falling, single point] | 32.6 µM [falling, single point]
15 | CCCn1c2ccc(C)cc2c2nnc(SCCN3CCCCC3)nc21 | 37.5% | 8.2 µM [rising, single point] | –
16 | N#CCCN(C(=O)COC(=O)C1CCN(S(=O)(=O)c2cccs2)CC1)c1ccccc1 | 5.76% | 0.146 µM [falling, full curve, poor fit] | 0.116 µM [falling, full curve, poor fit]
17 | COCCN(CC(=O)Nc1cccc(C)c1C)C(=O)Cn1cnc2ccccc2c1=O | -38.8% | 6.51 µM [falling, full curve, poor fit] | 0.58 µM [falling, single point]
18 | COc1ccc(CNS(=O)(=O)CCNC(=O)c2ccc(OC)cc2)cc1 | -9.78% | – | 6.51 µM [falling, single point]
19 | C=CCSc1nc2c(cc1C#N)CCC2 | – | – | 6.51 µM [rising, single point]

Row | Structure (SMILES) | cell number change | AC50 [1] | AC50 [2]
20 | Cc1cc(C)n(CC(=O)Nc2ccc(N3CCOCC3)c(Cl)c2)c(=O)c1C#N | 12.6% | – | –
21 | O=C(O)c1[nH]c2ccc([N+](=O)[O-])cc2c1-c1ccccc1 | -33.2% | – | 6.51 µM [falling, full curve, poor fit]
22 | C=CCn1c(C)cc(C(=O)COC(=O)c2cncc(Br)c2)c1C | 8.14% | – | 0.184 µM [falling, full curve, poor fit]
23 | CCOC(=O)CC1=CC(=O)Nc2ccccc2N1 | 8.36% | – | 2.06 µM [rising, full curve]
24 | O=C(NCc1ccc2c(c1)OCO2)c1ccc(-c2ccc(Cl)cc2)o1 | 35.6% | 7.31 µM [rising, partial curve, poor fit] | 1.16 µM [rising, single point]
25 | COC(=O)/C(C#N)=C/c1ccc(C)o1 | -9.15% | 7.31 µM [falling, single point] | 2.06 µM [falling, partial curve]
26 | CNC(=O)CNC(=O)Nc1ccc(Cl)c(Cl)c1 | -23.7% | 3.26 µM [falling, single point] | –
27 | CC(=O)Oc1ccc(C2C3=C(CC(C)(C)CC3=O)Nc3cc4c(cc32)OCCO4)cc1 (stereo unspecified) | 2.33% | – | 0.259 µM [falling, full curve]
28 | CCOCCCNC(=O)C(c1ccc(Cl)cc1)N1CCC2(CC1)OCCO2 (stereo unspecified) | -0.317% | – | 3.66 µM [falling, single point]
29 | COC(=O)c1c(C)nc2ccccc2c1-c1ccccc1 | 6.82% | – | 4.11 µM [rising, full curve]
30 | COc1ccc(-c2nnc(SCC(=O)NNC(=O)Cc3ccccc3)n2C)cc1OC | 21.8% | – | 0.184 µM [rising, full curve, poor fit]
31 | CCCCN(C)CCNC(=O)CN1C(=O)CSc2ccc(S(=O)(=O)N3CCCC3)cc21 | 8.9% | 0.058 µM [rising, full curve, poor fit] | –
32 | Cc1nc2c(ccc3nc(NC(=O)c4ccc5c(c4)OCCO5)sc32)s1 | -63.9% | 1.03 µM [falling, full curve, poor fit] | 32.6 µM [falling, partial curve, poor fit]
33 | Cc1cccc2sc(N(CCN(C)C)C(=O)c3ccc4ccccc4c3)nc12 | -32.6% | 32.6 µM [falling, single point] | 32.6 µM [rising, single point]
34 | COc1ccc(CNC(=O)c2sccc2-c2ccccc2)cc1OC | -8.09% | – | 6.51 µM [falling, single point]
35 | Cc1cc(C)cc(NC(=O)CCn2c(=S)[nH]c3ccccc3c2=O)c1 | 98.6% | 18.4 µM [rising, partial curve] | –
36 | COCCCn1c(=O)/c(=C\c2ccccc2OC(F)F)s/c1=C(/C#N)C(=O)NCCOC | – | 5.8 µM [rising, partial curve] | –
37 | COc1cc(C)nc(N2CCCC(C(=O)NC3CCC(C)CC3)C2)n1 (stereo unspecified) | 17.8% | – | 0.517 µM [rising, full curve, poor fit]

Single records, from the list above. Values in the order: cell number change	AC50 [1]	AC50 [2]
COc1ccc(-c2nnc(SCC(=O)NNC(=O)Cc3ccccc3)n2C)cc1OC in the list: 21.8%	–	0.184 µM [rising, full curve, poor fit]
C=CCSc1nc2c(cc1C#N)CCC2 in the list: –	–	6.51 µM [rising, single point]
